The values that follow come from patent US20140005163A1 (NOVARTIS AG, priority 2010, published 2014).

The chains behind the UniProt entries cited, without tags or fusion partners. A line that says so, or that is headed by a name, gives the form on record, which may keep a tag or linker. Residues count along the entry.
UniProt P42336, 21-1068 with tags or gaps limits assumed: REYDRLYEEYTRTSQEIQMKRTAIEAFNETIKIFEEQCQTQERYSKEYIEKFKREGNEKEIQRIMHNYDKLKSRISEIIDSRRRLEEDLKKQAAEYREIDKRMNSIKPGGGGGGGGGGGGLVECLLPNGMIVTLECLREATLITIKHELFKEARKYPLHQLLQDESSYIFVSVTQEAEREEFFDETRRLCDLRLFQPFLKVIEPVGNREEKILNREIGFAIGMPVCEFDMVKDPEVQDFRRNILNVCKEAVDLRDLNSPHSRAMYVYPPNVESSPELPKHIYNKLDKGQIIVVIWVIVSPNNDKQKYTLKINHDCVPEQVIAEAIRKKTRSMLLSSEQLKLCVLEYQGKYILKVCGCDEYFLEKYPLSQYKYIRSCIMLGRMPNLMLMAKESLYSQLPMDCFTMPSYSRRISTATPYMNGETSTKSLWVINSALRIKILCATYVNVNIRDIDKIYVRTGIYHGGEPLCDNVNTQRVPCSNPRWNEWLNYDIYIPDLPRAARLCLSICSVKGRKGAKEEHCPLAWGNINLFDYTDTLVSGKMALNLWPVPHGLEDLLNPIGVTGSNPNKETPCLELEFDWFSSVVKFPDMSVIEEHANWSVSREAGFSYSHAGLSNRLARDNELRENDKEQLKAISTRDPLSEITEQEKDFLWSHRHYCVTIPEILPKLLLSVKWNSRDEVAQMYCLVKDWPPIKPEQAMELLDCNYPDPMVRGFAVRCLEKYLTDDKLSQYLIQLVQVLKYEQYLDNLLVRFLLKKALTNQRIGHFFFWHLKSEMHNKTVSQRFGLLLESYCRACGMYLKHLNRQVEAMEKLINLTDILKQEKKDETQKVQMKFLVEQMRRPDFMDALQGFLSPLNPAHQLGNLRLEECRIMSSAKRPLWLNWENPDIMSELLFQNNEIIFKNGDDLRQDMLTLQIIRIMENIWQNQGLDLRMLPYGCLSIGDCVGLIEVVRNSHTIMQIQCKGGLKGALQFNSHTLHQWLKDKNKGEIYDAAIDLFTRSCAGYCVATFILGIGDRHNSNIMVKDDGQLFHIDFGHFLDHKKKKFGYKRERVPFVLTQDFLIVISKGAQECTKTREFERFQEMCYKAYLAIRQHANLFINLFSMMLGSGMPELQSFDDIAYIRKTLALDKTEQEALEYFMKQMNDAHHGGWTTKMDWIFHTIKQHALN
UniProt P42338, 2-1070 with tags or gaps limits assumed: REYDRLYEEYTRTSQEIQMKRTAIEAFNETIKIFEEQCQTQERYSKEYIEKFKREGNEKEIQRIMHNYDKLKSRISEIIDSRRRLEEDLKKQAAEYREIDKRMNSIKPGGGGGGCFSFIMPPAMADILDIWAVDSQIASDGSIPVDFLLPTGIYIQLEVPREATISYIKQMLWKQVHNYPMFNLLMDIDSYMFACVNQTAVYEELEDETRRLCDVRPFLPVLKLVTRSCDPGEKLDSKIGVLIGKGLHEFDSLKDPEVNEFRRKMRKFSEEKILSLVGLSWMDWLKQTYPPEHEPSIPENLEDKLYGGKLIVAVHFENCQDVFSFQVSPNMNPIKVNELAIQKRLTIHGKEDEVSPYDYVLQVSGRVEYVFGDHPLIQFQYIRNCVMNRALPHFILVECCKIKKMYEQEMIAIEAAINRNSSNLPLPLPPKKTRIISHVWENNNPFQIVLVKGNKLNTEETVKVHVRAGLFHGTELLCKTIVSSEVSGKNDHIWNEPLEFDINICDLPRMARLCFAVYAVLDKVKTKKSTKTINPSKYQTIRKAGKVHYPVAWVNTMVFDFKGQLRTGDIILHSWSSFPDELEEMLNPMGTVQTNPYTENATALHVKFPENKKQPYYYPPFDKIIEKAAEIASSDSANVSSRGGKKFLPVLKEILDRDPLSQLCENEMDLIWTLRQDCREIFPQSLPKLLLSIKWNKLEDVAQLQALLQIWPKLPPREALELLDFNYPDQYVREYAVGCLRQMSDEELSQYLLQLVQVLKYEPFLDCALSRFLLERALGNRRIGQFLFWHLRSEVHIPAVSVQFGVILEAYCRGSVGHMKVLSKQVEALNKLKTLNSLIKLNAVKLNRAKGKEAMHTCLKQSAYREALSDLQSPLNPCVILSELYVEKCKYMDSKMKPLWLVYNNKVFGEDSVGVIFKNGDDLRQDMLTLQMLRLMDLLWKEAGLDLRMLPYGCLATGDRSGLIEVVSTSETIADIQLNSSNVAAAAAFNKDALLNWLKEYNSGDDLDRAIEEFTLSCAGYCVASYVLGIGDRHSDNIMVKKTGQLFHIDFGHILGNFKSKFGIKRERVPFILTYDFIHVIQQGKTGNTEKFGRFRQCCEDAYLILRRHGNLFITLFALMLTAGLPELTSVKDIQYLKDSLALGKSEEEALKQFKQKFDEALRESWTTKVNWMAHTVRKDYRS
UniProt O00329, 2-1044 with tags or gaps limits assumed: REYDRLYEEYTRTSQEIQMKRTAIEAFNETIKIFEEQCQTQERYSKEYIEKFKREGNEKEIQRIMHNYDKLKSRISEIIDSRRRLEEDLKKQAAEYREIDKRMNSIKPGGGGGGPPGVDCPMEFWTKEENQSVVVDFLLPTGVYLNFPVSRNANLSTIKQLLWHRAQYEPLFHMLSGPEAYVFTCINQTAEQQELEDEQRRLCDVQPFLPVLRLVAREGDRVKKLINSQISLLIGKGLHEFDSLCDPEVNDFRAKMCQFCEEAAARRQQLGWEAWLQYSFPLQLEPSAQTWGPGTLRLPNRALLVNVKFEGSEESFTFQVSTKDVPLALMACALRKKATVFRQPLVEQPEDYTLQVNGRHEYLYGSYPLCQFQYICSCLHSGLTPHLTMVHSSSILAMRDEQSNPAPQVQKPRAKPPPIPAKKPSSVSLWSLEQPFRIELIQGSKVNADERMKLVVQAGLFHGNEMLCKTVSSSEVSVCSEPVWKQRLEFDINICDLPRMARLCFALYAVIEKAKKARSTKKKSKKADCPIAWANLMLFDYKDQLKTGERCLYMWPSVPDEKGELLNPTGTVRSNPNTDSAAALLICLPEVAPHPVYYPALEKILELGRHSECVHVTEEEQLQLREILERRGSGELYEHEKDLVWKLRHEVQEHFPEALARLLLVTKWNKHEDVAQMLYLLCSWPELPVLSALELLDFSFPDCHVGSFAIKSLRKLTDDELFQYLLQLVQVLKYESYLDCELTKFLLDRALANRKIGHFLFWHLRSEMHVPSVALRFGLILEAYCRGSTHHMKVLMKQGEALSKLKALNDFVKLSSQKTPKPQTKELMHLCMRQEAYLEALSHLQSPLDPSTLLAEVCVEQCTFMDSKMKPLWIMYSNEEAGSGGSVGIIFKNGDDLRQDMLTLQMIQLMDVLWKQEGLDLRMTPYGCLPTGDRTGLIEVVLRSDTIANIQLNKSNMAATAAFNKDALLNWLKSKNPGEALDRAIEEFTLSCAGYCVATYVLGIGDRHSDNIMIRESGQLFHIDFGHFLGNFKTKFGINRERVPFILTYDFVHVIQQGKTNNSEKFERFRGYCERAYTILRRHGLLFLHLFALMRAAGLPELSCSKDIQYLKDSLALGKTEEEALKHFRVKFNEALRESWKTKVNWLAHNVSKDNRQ
UniProt P42345, 1360-2549 limits assumed: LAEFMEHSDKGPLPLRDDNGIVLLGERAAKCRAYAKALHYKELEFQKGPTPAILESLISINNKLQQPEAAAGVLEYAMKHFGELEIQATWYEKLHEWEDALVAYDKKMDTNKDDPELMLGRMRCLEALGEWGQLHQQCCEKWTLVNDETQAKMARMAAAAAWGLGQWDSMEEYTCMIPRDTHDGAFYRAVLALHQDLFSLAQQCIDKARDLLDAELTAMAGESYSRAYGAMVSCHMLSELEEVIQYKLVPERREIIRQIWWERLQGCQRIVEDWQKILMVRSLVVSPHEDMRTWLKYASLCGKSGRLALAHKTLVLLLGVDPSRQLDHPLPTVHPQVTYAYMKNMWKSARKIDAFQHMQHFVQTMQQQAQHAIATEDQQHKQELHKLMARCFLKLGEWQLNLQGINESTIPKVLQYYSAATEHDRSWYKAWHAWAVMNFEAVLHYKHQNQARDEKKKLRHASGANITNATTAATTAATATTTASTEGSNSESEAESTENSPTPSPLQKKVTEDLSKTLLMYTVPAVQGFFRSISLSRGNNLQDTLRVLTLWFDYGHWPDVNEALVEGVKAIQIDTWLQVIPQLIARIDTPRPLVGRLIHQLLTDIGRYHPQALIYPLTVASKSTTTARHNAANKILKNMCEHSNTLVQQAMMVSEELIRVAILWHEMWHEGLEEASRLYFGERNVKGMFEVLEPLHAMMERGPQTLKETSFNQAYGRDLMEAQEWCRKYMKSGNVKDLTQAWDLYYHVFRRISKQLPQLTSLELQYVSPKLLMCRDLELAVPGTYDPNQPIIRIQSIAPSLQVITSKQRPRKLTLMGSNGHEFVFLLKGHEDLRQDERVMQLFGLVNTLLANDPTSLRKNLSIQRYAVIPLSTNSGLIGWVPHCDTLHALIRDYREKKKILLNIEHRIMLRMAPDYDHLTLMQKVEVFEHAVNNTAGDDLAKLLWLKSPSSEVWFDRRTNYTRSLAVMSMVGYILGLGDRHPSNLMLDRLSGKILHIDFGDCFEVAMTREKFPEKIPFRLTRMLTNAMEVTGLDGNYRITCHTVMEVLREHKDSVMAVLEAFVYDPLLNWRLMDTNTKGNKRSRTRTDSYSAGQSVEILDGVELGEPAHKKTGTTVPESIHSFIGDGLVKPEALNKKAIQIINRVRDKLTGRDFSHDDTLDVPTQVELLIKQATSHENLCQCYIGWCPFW
UniProt P48736, 144-1102 limits assumed: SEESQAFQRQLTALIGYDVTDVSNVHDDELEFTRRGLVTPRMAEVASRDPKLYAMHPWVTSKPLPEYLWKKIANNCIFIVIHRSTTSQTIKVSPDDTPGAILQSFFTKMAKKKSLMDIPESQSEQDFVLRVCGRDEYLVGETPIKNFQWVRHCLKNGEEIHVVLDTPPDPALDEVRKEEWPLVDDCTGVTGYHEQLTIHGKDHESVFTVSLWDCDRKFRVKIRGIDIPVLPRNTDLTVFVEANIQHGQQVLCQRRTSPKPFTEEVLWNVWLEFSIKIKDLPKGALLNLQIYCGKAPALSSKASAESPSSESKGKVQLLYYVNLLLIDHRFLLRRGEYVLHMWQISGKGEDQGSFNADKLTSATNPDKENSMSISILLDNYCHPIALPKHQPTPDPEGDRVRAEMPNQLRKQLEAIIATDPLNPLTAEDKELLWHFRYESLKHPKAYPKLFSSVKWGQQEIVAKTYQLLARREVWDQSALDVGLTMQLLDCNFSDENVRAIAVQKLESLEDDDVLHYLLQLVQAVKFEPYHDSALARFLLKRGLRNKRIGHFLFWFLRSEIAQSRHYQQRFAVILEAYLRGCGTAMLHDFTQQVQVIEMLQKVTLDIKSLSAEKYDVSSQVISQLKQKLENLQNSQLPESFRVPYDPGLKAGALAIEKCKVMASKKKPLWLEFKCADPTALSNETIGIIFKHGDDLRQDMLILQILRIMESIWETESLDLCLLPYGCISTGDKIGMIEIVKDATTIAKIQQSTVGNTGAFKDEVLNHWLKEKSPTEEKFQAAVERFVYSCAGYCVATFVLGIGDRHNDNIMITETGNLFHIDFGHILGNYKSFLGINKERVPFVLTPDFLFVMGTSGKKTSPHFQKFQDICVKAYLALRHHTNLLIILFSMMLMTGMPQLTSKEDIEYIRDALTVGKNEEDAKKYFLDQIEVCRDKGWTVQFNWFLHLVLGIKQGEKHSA

Each structure is given as a SMILES string. The match of structure and compound is tentative.

The target in one assay is PI3K alpha (Homo sapiens, UniProt P42336). The assay is described as follows: PI3K alpha kinase assay (Kinase-Glo luminescence). As to conditions: read-out: PI3K alpha IC50.
A further assay addresses PI3K beta (Homo sapiens, UniProt P42338). Description: PI3K beta kinase assay (Kinase-Glo luminescence). Conditions: read-out: PI3K beta IC50.
Another assay has as its target PI3K delta (Homo sapiens, UniProt O00329). The assay is described as follows: PI3K delta kinase assay (Kinase-Glo luminescence). Conditions: read-out: PI3K delta IC50.
The target in a further assay is mTOR (Homo sapiens, UniProt P42345). The assay is described as follows: Biochemical assay for m-TOR by TR-FRET. As to conditions: read-out: mTOR IC50, 8 μM ATP, 400 nM GFP-4EBP1, 0.5 nM mTOR.
The subject of assay [1] is PKB Ser473 phosphorylation in Rat1-myr-HA-p110 alpha cells. The assay is described as follows: Reverse protein array assay, PKB Ser473 phosphorylation in Rat1-myr-p110 alpha cells. Conditions: read-out: p-PKB IC50, pAkt Ser473, 30 minutes compound incubation.
Assay [2] deals with PKB Ser473 phosphorylation in Rat1-myr-HA-p110 beta cells. The assay is described as follows: Reverse protein array assay, PKB Ser473 phosphorylation in Rat1-myr-p110 beta cells. The format is cell-based. As to conditions: read-out: p-PKB IC50, pAkt Ser473, 30 minutes incubation.
Assay [3] relates to PKB Ser473 phosphorylation in Rat1-myr-HA-p110 delta cells. Description: Reverse protein array assay, PKB Ser473 phosphorylation in Rat1-myr-p110 delta cells. Conditions: read-out: p-PKB IC50.
Assay [4] relates to S6 Ribosomal Protein phosphorylation Ser235/236 in TSC1 null mouse embryo fibroblast (MEF) cells. The assay is described as follows: Reverse protein array assay, S6 Ribosomal Protein phosphorylation Ser235/236 in TSC1 null MEF cells. Conditions: read-out: p-S6 IC50, pS6 ribosomal protein Ser235/236, 60 minutes incubation.
Another assay concerns the target PI3K gamma (Homo sapiens, UniProt P48736). Description: PI3K gamma kinase assay (Kinase-Glo luminescence). As to conditions: read-out: PI3K gamma IC50.

Turning to `COCCOc1cc(-c2ccc3ncc4c(c3c2)n(-c2cn(C)nc2Cl)c(=O)n4C)cnc1C`, the IC50 on PI3K alpha worked out at 12 nM; on PI3K beta, 13 nM; at PI3K delta it was 5 nM; at mTOR it was 6 nM; in assay [1], 8 nM; in [2], 22 nM. Further, the figures for the IC50 in assay [3] and in assay [4] were 22 nM and 3 nM, respectively.

In the case of `Cc1nn(C)cc1-n1c(=O)n(C)c2cnc3ccc(-c4ccc(N)nc4)cc3c21` [Example 23.1, 8-(6-Amino-pyridin-3-yl)-1-(1,3-dimethyl-1H-pyrazol-4-yl)-3-methyl-1,3-dihydro-imidazo[4,5-c]quinolin-2-one], the IC50 on PI3K gamma amounted to 160 nM.

For the compound `Cc1nn(C)cc1-n1c(=O)n(C)c2cnc3ccc(-c4cnc(N)c(C(F)(F)F)c4)cc3c21` [Example 25.1, 8-(6-Amino-5-trifluoromethyl-pyridin-3-yl)-1-(1,3-dimethyl-1H-pyrazol-4-yl)-3-methyl-1,3-dihydro-imidazo[4,5-c]quinolin-2-one], on PI3K gamma, the IC50 came out at 303 nM.
